Values of other authors in US20230338392A1, “SUBCUTANEOUS ADMINISTRATION OF AN ASBT INHIBITOR” (Albireo AB, priority 2022, published 2023).
Some results were stated once for a whole list of compounds, not compound by compound.

Conditions: cited from earlier work

Compound	systemic absorption following oral administration
CCCC[C@]1(CC)CS(=O)(=O)c2cc(CNC(CC(=O)O)CC(=O)O)c(OC)cc2[C@@H](c2ccccc2)N1 [linerixibat, 3-({[(3R,5R)-3-butyl-3-ethyl-7-methoxy-1,1-dioxo-5-phenyl-2,3,4,5-tetrahydro-1H-1λ^6,4-benzothiazepin-8-yl]methyl}amino)pentanedioic acid]	less than 10%
CCCCC1(CCCC)CN(c2ccccc2)c2cc(SC)c(OCC(=O)N[C@@H](C(=O)NCC(=O)O)c3ccccc3)cc2S(=O)(=O)C1 [elobixibat, 1,1-dioxo-3,3-dibutyl-5-phenyl-7-methylthio-8-(N-{(R)-1′-phenyl-1′-[N′-(carboxymethyl)-carbamoyl]methyl}carbamoylmethoxy)-2,3,4,5-tetrahydro-1,5-benzothiazepine]	less than 10%
CCCCC1(CCCC)CN(c2ccccc2)c2cc(SC)c(OCC(=O)N[C@@H](C(=O)N[C@@H](CC)C(=O)O)c3ccc(O)cc3)cc2S(=O)(=O)N1 [odevixibat, 1,1-dioxo-3,3-dibutyl-5-phenyl-7-methylthio-8-(N-{(R)-α-[N-((S)-1-carboxypropyl)carbamoyl]-4-hydroxybenzyl}carbamoylmethoxy)-2,3,4,5-tetrahydro-1,2,5-benzothiadiazepine]	less than 10%
CCCC[C@]1(CC)CS(=O)(=O)c2ccc(N(C)C)cc2[C@@H](c2cccc(NC(=O)N[C@@H]3O[C@H](COS(=O)(=O)O)[C@@H](O)[C@H](OCc4ccccc4)[C@H]3O)c2)[C@H]1O [volixibat, N-(3-O-benzyl-6-O-sulfo-β-D-glucopyranosyl)-N′-{3-[(3S,4R,5R)-3-butyl-7-(dimethylamino)-3-ethyl-4-hydroxy-1,1-dioxo-2,3,4,5-tetrahydro-1H-1λ^6-benzothiepin-5-yl]phenyl}urea]	less than 10%
